Test results taken from patent US10030059B2, “Modulators of gamma-C-cytokine activity” (Bioniz, LLC, priority 2015, dated 2018).
Part of at least one peptide drawing is inferred or uncertain, most often the ends. Peptide text beside a SMILES is read from it.

Columns and labels:
IL-15 = experiment: PT-18β proliferation assay (WST-1), IL-15-stimulated; assay type: cell-based; settings: PT-18β cells (murine mast cell line), 1 nM cytokine, BNZ-γ HEK293T supernatant 1:20 or 1:50, 2 days
IL-4 = experiment: PT-18β proliferation assay (WST-1), IL-4-stimulated; assay type: cell-based; settings: PT-18β cells (murine mast cell line), 1 nM cytokine, BNZ-γ HEK293T supernatant 1:20 or 1:50, 2 days
[1] = tested on: T-cells in HAM/TSP patient PBMC; experiment: Ex vivo spontaneous T-cell proliferation assay using HAM/TSP peripheral blood; assay type: cell-based, human
Experimental: Proliferation assays were performed on HAM/TSP patient blood samples with and without the addition of BNZ-γ. These assays evaluated the ability of BNZ-γ to block the function of cytokines, such as IL-2 and IL-15, present in the ex vivo HAM/TSP patient blood culture and prevent spontaneous T-cell proliferation in these samples.
In an ex vivo spontaneous T-cell proliferation assay, PBMC from HAM/TSP patient was cultured at 1×10(6) cells per well of a 96 well plate in RPMI-10% FCS. Increasing concentrations of BNZ-γ peptide were added to each well. As a control, an irrelevant peptide was used in similar fashion. The cells were incubated in a 37° C. CO2 incubator for 3, 4, and 6 days. The amount of 1 μCi of ^3H-thymidine was added to the cells. After an additional 6 hour incubation, cells were harvested their proliferation rate was measured. As indicated in FIG. 4A-FIG. 4D, BNZ-γ peptide inhibits the spontaneous proliferation of T-cells in HAM/TSP culture at a concentration of about 1 μg/ml.
Other immunological markers were additionally measured in this assay. The percentage of the viral specific CD8 cells was measured during the ex vivo culture using viral protein tetramers. The population of CD4+CD25+ cells, a marker of T-cell activation, as well as Ki67 staining, a marker of T-cell proliferation, was monitored in a flow cytometry assay.

IL-3 = experiment: PT-18β proliferation assay (WST-1), IL-3-stimulated (negative control cytokine); assay type: cell-based; settings: PT-18β cells (murine mast cell line), 1 nM cytokine, BNZ-γ HEK293T supernatant 1:20 or 1:50, 2 days
IL-9 = experiment: PT-18β proliferation assay (WST-1), IL-9-stimulated; assay type: cell-based; settings: PT-18β cells (murine mast cell line), 1 nM cytokine, BNZ-γ HEK293T supernatant 1:20 or 1:50, 2 days
[2] = HAM/TSP peripheral blood ex vivo culture, flow cytometry

SMILES: CC[C@H](C)[C@H](N)C(=O)N[C@@H](CCCCN)C(=O)N[C@@H](CCC(=O)O)C(=O)N[C@@H](Cc1ccccc1)C(=O)N[C@@H](CC(C)C)C(=O)N[C@@H](CCC(N)=O)C(=O)N[C@@H](CCCNC(=N)N)C(=O)N[C@@H](Cc1ccccc1)C(=O)N[C@H](C(=O)N[C@@H](Cc1c[nH]cn1)C(=O)N[C@H](C(=O)N[C@H](C(=O)N[C@@H](CCC(N)=O)C(=O)N[C@@H](CO)C(=O)N[C@H](C(=O)N[C@H](C(=O)N[C@@H](CC(N)=O)C(=O)N[C@H](C(=O)N[C@@H](CO)C(=O)O)[C@@H](C)O)[C@@H](C)CC)[C@@H](C)CC)C(C)C)[C@@H](C)CC)[C@@H](C)CC [BNZ-γ, I-K-E-F-L-Q-R-F-I-H-I-V-Q-S-I-I-N-T-S] (H-IKEFLQRFIHIVQSIINTS-OH)
- growth-promoting activity of IL-15 (IL-15): significantly (p<0.01 Student's T test) reduced
- cellular proliferation stimulated by IL-4 (IL-4): not affected
- population of CD4+CD25+ cells (marker of T-cell activation) [1, 2]: diminished
- population of CD4+Ki67 cells (marker of T-cell proliferation) [1, 2]: reduced
- concentration inhibiting spontaneous proliferation of T-cells in HAM/TSP culture ([1]; PBMC of a representative HAM/TSP patient, 3, 4 and 6 days, 3H-thymidine): about 1 μg/ml
- growth-promoting activity of IL-3 (a non γc-cytokine) (IL-3): not inhibited
- growth-promoting activity of IL-9 (IL-9): significantly (p<0.01 Student's T test) reduced
